Measurements reported in PubChem BioAssay AID1671195 (Yale University, 2021)
The whole screen tested about 22,000 reagents; below is a random part of them. About 1,510 of all reagents (6.9%) were called active. 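Active includes knockdowns raising or lowering LDL uptake; positive z-scores mean more uptake, negative mean less.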

Test: 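Regulators of LDL receptor activity judged by labelled LDL uptake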 (primary screen)
System: human Huh7 hepatoma cells
Reagents: siRNA pool against human genes, 18 nM
Duration: about 2 to 2.5 days of knockdown, then 8 h LDL uptake
Conditions: DiI-labelled LDL at 30 µg/ml for 8 h, in lipoprotein-deficient serum medium
Detection: 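Per-cell DiI-LDL intensity by automated imaging; well means scaled to the plate median and given as a robust z-score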
Reading the numbers: robust z-score: higher = more LDL uptake after knockdown
Call rule: 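a gene counts as active if at least two replicate z-scores exceed ±2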

target | robust z-score, replicate 1 | robust z-score, replicate 2 | robust z-score, replicate 3 | Outcome
MTFP1 (mitochondrial fission process 1) | -1.4 | 0.0889 | -1.05 | inactive
IFIT1B (interferon induced protein with tetratricopeptide repeats 1B) | -0.508 | -0.274 | 0.0232 | inactive
NEFL (neurofilament light chain) | -0.551 | 0.105 | 1.21 | inactive
CLCN4 (Cl-/H+ antiporter 4) | -0.231 | -0.107 | 0.024 | inactive
TACR1 (tachykinin receptor 1) | -1.03 | -1.41 | -1.53 | inactive
ITGAE (integrin subunit alpha E) | 0.984 | -0.508 | -0.772 | inactive
CASP4 (caspase 4) | 0.72 | 0.262 | -0.0588 | inactive
KCNQ4 (potassium voltage-gated channel subfamily Q member 4) | -0.163 | -0.0178 | -0.635 | inactive
TTLL10 (tubulin tyrosine ligase like 10) | 0.201 | 0.491 | 0.875 | inactive
FLJ46230 (retired record) | 0.232 | 0.0412 | -0.258 | inactive
SLC37A3 | 0.32 | 0.906 | 0.528 | inactive
FAM209B (family with sequence similarity 209 member B) | -0.58 | -0.967 | -0.628 | inactive
LOC391705 (retired record) | 1.6 | 0.578 | 1.1 | inactive
INTS2 (integrator complex subunit 2) | 1.29 | 1.04 | -0.0755 | inactive
TNF (tumor necrosis factor) | 0.193 | -0.311 | -0.0355 | inactive
NNMT (nicotinamide N-methyltransferase) | -0.39 | 0.307 | -0.438 | inactive
PKD2 (polycystin 2, transient receptor potential cation channel) | -0.716 | -0.837 | -0.225 | inactive
LAS1L (LAS1 like ribosome biogenesis factor) | -0.349 | -0.513 | -0.797 | inactive
LOC440599 (retired record) | -1.76 | -1.71 | -1.54 | inactive
SLC39A5 | 0.00326 | 0.0871 | -0.123 | inactive
SPATA31D1 (SPATA31 subfamily D member 1) | 0.129 | 0.429 | 0.533 | inactive
SLC14A1 | 0.397 | 0.112 | 0.226 | inactive
PLA2G2E (phospholipase A2 group IIE) | 0.243 | 0.103 | 0.366 | inactive
PIK3CG | -0.54 | -0.553 | -1.44 | inactive
MCF2L (MCF.2 cell line derived transforming sequence like) | 0.96 | 1.25 | 0.593 | inactive
COMMD1 (copper metabolism domain containing 1) | -0.19 | -0.0268 | -1.03 | inactive
ABHD18 (abhydrolase domain containing 18) | -0.557 | -0.707 | -0.833 | inactive
JPH2 (junctophilin 2) | -0.105 | 0.281 | -0.852 | inactive
LOC338914 (retired record) | 0.591 | 0.467 | 0.247 | inactive
KLHL27 (kelch like family member 27) | -0.861 | -1.22 | -1.26 | inactive
CSNK1A1L (casein kinase 1 alpha 1 like) | -0.199 | 0.00751 | -0.272 | inactive
FMNL1 (formin like 1) | 1.13 | 0.801 | 0.704 | inactive
IL4 (interleukin 4) | -2.2 | -2.06 | -2.01 | active
MED7 (mediator complex subunit 7) | -0.354 | 2.01 | 0.256 | inactive
THOC5 (THO complex subunit 5) | 2.76 | 0.93 | 1.57 | inactive
FAAP24 (FA core complex associated protein 24) | 2.04 | 2.17 | 2.18 | active
INKA2 (inka box actin regulator 2) | -0.89 | -1.53 | -1.92 | inactive
ZFP42 (ZFP42 zinc finger protein) | -1.09 | -0.968 | -1.86 | inactive
PSG5 (pregnancy specific beta-1-glycoprotein 5) | 0.212 | 0.202 | 0.949 | inactive
CCKAR (cholecystokinin A receptor) | -0.697 | -1.29 | -0.818 | inactive
TMEM167B (transmembrane protein 167B) | -1.06 | 0.535 | -0.809 | inactive
KRT79 (keratin 79) | -0.000615 | 0.565 | 0.306 | inactive
MYADM (myeloid associated differentiation marker) | 0.734 | 1.27 | 0.397 | inactive
LOC441354 (retired record) | -0.684 | -0.949 | -1.17 | inactive
KRT10 (keratin 10) | -0.292 | -0.634 | -1.1 | inactive
OR8J1 (olfactory receptor family 8 subfamily J member 1) | -0.145 | -0.279 | -0.207 | inactive
LOC440942 (retired record) | -0.445 | -1.05 | -0.685 | inactive
LOC439952 (retired record) | -0.76 | -0.539 | -0.974 | inactive
SLC17A8 | 1.34 | 1.99 | 1.49 | inactive
DDI1 (DDI proteasomal shuttling factor 1) | 0.317 | 0.0674 | -0.106 | inactive
TMEM17 (transmembrane protein 17) | 1.92 | 1.83 | 1.16 | inactive
SLCO4C1 | 1.65 | 1.07 | 1.88 | inactive
PKIG (cAMP-dependent protein kinase inhibitor gamma) | 1.25 | 0.116 | 0.22 | inactive
AIPL1 (AIP like 1 HSP90 co-chaperone) | -0.572 | -0.71 | -1.16 | inactive
RPL37 (ribosomal protein L37) | 0.276 | 0.231 | 0.121 | inactive
PMEL (premelanosome protein) | -2.38 | -0.925 | -0.0822 | inactive
HMGB3P30 (high mobility group box 3 pseudogene 30) | -0.223 | -0.215 | -0.283 | inactive
SERINC1 (serine incorporator 1) | -0.341 | -0.508 | -0.538 | inactive
COLEC11 (collectin subfamily member 11) | 0.116 | -0.147 | -0.442 | inactive
TRPM6 | -0.963 | -1.05 | -0.373 | inactive
ZFP90 (ZFP90 zinc finger protein) | -0.753 | -0.948 | -0.955 | inactive
MAS1 (MAS1 proto-oncogene, G protein-coupled receptor) | 0.75 | 0.868 | 0.794 | inactive
PRKAA1 (protein kinase AMP-activated catalytic subunit alpha 1) | 0.0271 | 0.322 | 0.75 | inactive
LOC253289 (retired record) | -0.273 | 0.247 | 0.246 | inactive
LOC442004 (retired record) | -0.73 | -0.582 | -0.44 | inactive
MLLT3 (MLLT3 super elongation complex subunit) | 0.881 | 0.922 | 1.26 | inactive
ILF3 (interleukin enhancer binding factor 3) | -0.819 | -0.444 | -0.766 | inactive
LINC00923 (long independently transcribed non-coding RNA 923) | -1.3 | -0.557 | -0.501 | inactive

An excerpt taken from the entries so far, for reference:
target | robust z-score, replicate 1 | robust z-score, replicate 2 | robust z-score, replicate 3 | Outcome
TMEM167B (transmembrane protein 167B) | -1.06 | 0.535 | -0.809 | inactive
KRT79 (keratin 79) | -0.000615 | 0.565 | 0.306 | inactive
MYADM (myeloid associated differentiation marker) | 0.734 | 1.27 | 0.397 | inactive
LOC441354 (retired record) | -0.684 | -0.949 | -1.17 | inactive
KRT10 (keratin 10) | -0.292 | -0.634 | -1.1 | inactive
OR8J1 (olfactory receptor family 8 subfamily J member 1) | -0.145 | -0.279 | -0.207 | inactive
LOC440942 (retired record) | -0.445 | -1.05 | -0.685 | inactive
LOC439952 (retired record) | -0.76 | -0.539 | -0.974 | inactive
SLC17A8 | 1.34 | 1.99 | 1.49 | inactive
